From patent publication US8501957B2, “Benzimidazole compounds and their use as anticancer agents” (China Medical University, priority 2008, dated 2013)
At least one structure is not confirmed: it was looked up by name or label, or the drawing left a doubt.

Test system: PC-3 cells
Assay: JNK involvement in apoptosis, propidium iodide FACScan
Type: cell-based, human
Settings: SP600125 20 μM with Compound 55 10 μM, 12 hrs, 24 hrs, and 36 hrs

For `Oc1c2ccccc2c2c3c(cccc13)N=N2` [SP600125], the “SP600125-reversible cell population, cell cycle phase” value was “shifted to G2/M phase” and the “apoptosis induced by Compound 55” value was “significantly inhibited”.
